Reference: patent publication US20250236609A1, “VPS34 INHIBITORS AND METHODS OF USE THEREOF” (Deciphera Pharmaceuticals, LLC, priority 2023, published 2025)

The chains behind the UniProt entries cited, without tags or fusion partners. Where a name states a change or a piece, a line headed by the entry shows the natural chain unless it says otherwise. A line that says so, or that is headed by a name, gives the form on record, which may keep a tag or linker. Residues count along the entry.
UniProt Q8NEB9, 1-887 with tags or gaps limits assumed: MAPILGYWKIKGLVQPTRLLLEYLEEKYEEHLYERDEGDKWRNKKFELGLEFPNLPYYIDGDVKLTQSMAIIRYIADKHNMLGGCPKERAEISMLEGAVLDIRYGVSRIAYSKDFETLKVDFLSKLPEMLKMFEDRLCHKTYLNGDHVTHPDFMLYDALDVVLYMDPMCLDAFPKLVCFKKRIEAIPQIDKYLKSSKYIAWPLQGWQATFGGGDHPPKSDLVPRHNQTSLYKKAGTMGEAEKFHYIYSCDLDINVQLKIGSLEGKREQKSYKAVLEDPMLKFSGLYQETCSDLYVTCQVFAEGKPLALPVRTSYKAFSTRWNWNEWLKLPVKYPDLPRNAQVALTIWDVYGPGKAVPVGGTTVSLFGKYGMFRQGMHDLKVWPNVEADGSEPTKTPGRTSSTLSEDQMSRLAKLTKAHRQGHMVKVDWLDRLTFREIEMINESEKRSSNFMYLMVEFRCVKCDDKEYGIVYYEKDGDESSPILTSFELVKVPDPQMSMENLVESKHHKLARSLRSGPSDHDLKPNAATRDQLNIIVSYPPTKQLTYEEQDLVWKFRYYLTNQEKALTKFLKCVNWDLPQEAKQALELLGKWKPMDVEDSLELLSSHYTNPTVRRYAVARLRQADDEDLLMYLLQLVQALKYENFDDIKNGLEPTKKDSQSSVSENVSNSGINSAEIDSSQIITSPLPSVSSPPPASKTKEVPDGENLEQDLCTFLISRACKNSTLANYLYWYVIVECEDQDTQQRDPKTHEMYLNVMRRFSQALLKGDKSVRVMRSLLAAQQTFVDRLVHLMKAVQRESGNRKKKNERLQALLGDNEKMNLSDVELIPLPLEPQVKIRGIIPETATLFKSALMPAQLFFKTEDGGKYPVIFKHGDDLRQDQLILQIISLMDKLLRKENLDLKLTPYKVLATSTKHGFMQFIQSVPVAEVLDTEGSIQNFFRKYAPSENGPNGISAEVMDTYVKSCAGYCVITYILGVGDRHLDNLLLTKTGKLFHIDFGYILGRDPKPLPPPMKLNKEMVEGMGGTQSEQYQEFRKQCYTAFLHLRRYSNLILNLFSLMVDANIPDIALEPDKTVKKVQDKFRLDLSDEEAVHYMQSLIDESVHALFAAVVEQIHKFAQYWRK
UniProt P42336, whole entry: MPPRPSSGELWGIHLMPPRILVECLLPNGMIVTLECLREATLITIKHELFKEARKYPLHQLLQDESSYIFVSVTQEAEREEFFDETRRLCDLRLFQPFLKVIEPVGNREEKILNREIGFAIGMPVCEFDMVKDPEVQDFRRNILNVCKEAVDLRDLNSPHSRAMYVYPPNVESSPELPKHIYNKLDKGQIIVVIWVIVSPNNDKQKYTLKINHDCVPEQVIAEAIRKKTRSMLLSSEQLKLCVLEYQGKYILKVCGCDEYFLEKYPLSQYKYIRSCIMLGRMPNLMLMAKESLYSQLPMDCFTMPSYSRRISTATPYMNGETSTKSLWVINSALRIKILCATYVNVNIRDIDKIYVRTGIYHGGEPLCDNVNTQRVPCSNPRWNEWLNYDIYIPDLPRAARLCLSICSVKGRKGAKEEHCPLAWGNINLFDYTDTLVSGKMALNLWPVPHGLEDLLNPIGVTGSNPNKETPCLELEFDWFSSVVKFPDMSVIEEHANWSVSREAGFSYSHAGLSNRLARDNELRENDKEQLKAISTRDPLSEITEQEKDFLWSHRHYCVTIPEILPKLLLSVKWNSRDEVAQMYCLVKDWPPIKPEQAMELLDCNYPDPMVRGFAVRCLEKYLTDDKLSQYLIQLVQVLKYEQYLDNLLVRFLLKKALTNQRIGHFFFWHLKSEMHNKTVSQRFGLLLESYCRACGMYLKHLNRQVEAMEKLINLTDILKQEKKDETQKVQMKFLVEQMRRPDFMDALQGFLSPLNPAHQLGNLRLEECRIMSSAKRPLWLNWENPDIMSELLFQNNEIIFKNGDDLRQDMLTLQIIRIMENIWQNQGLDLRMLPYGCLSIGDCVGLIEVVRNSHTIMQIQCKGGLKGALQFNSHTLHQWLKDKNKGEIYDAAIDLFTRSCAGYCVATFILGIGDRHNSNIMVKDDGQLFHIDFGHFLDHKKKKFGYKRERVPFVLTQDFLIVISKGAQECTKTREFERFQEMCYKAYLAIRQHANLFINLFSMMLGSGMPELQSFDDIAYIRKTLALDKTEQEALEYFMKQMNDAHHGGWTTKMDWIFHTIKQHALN
UniProt P42336, whole entry E542K: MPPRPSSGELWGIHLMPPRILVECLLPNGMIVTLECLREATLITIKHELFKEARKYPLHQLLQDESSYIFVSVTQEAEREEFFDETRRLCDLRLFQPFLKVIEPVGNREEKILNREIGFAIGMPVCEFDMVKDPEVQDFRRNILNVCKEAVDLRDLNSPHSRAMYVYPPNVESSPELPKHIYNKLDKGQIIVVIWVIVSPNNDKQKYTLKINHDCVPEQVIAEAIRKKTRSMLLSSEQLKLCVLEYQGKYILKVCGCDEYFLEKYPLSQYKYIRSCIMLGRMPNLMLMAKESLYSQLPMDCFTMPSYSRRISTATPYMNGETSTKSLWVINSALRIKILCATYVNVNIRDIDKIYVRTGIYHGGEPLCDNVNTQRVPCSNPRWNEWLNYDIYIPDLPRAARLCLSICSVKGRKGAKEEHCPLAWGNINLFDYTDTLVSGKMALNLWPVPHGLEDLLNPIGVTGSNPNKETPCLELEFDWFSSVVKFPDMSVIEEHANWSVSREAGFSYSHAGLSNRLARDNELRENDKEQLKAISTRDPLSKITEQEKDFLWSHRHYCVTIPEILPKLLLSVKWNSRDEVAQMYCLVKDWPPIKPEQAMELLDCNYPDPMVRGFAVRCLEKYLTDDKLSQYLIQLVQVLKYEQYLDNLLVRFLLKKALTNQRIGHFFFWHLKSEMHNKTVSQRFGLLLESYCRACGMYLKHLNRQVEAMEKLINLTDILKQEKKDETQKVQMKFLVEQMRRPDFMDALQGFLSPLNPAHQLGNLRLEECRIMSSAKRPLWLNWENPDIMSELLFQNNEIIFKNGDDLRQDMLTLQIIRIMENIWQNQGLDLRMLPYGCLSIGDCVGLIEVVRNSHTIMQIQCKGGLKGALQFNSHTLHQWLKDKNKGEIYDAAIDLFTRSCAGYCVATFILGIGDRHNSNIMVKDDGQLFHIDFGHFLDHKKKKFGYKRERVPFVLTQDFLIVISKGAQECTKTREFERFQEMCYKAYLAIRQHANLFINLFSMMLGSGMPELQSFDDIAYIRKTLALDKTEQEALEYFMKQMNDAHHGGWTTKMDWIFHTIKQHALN
UniProt P42336, whole entry E545K: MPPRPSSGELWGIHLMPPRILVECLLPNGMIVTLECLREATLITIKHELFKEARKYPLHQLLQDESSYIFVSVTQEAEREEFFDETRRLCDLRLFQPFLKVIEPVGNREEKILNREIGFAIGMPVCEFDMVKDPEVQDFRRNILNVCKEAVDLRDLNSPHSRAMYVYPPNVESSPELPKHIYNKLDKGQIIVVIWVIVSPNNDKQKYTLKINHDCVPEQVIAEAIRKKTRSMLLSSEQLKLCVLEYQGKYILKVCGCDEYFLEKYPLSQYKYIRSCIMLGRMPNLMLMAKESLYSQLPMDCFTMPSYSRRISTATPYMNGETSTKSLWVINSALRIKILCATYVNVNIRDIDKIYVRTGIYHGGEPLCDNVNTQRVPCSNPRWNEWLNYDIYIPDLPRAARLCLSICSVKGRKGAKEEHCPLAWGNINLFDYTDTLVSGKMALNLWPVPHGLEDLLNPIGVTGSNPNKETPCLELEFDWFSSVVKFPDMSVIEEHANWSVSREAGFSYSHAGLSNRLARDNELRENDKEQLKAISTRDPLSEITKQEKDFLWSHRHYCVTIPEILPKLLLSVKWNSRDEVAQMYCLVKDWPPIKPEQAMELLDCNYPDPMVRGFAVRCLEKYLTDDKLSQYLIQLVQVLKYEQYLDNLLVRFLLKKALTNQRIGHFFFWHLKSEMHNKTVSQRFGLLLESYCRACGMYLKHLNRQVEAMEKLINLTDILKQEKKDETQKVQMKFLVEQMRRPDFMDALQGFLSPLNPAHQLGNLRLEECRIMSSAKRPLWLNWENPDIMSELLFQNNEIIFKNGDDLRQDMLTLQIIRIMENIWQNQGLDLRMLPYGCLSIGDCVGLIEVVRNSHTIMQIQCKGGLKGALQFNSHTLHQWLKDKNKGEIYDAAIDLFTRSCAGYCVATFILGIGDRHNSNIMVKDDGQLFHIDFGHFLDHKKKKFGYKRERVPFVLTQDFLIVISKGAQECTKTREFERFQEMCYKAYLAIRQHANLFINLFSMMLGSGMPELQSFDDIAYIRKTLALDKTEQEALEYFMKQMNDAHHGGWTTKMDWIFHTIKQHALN
UniProt P42336, whole entry H1047R: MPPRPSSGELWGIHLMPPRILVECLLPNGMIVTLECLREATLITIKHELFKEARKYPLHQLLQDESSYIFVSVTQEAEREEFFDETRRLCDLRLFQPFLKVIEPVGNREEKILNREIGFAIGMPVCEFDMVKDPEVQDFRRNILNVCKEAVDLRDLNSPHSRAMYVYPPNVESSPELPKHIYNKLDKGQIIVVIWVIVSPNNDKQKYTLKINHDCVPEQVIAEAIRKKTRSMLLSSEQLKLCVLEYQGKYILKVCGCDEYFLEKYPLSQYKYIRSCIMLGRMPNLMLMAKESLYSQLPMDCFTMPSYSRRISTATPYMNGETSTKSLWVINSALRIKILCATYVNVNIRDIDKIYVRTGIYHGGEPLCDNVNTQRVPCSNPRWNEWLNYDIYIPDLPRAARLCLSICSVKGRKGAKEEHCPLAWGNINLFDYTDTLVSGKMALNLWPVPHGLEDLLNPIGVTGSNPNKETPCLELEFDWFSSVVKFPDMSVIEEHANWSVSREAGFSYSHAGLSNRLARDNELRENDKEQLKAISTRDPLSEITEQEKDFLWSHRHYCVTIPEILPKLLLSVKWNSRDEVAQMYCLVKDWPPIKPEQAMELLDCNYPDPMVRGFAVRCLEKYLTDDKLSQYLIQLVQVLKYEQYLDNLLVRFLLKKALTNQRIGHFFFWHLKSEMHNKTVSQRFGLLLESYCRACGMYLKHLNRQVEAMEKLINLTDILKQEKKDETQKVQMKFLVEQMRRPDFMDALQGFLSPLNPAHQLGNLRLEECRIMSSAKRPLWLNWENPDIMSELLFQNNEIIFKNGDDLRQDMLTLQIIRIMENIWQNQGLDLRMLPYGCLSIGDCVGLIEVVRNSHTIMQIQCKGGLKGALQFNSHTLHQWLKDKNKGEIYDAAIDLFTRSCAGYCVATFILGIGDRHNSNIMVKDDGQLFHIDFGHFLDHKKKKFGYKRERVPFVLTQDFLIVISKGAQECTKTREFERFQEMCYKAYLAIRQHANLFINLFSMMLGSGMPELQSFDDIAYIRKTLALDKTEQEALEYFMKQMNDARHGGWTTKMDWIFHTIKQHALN
UniProt O00329, whole entry: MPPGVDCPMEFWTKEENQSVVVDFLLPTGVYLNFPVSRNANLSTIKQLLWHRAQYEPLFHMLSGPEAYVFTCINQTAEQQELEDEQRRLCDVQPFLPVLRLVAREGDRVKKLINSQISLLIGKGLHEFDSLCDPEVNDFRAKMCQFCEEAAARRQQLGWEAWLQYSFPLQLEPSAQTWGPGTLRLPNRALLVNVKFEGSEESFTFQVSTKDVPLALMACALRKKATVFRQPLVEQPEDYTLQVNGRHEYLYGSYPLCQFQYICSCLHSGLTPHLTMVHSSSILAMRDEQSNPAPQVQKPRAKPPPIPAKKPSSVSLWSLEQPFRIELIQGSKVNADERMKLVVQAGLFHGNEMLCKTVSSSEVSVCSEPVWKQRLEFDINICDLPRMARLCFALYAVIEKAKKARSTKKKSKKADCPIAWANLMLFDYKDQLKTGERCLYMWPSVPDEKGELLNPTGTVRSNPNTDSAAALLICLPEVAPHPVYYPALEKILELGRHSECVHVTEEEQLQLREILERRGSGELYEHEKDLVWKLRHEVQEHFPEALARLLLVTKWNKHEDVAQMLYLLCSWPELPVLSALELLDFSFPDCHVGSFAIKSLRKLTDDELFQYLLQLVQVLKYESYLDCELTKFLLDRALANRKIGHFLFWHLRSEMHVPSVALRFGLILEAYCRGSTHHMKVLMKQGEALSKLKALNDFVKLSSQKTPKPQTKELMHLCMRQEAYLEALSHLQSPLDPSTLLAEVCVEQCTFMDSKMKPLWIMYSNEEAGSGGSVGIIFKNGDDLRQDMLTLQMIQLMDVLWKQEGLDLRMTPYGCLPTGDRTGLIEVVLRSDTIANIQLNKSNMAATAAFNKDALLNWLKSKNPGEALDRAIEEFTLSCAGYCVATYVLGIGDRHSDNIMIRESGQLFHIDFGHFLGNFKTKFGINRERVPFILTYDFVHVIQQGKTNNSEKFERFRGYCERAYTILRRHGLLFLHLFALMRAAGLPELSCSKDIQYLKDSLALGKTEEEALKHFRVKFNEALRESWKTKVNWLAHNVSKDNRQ

Experiments:
[1] = molecular target: VPS34 (Homo sapiens (Human), UniProt Q8NEB9); assay: Biochemical Assay for VPS34 (ADP-Glo kinase activity assay); settings: read-out: VPS34 (Inhibition of biochemical activity of VPS34, IC50); 25 nM VPS34, 1 mM ATP, 1-hour incubation at 37° C.
Description: Activity of VPS34 kinase was determined using an ADP-Glo kinase activity assay (Promega Corp). Assays were conducted in 384-well plates (5 μL assay volume) using 25 nM VPS34 (ThermoFisher Scientific), […] PI:3PS Lipid Kinase Substrate (Promega Corp.), and 1 mM ATP in kinase buffer. Inhibition of VPS34 was measured by adding serial diluted test compound (final assay concentration of 0.1% DMSO) followed by a 1-hour incubation at 37° C. ADP-Glo reagent was then added ([…]) followed by a 40 min incubation at rt. Kinase detection reagent was then added ([…]) and followed by a 60 min incubation at rt. Luminescence was then detected. The RLU at each compound concentration of was converted to percent inhibition using controls (i.e., reaction with no test compound and reaction with a known inhibitor) and IC50 values were calculated by fitting a four-parameter sigmoidal curve to the data using GeneData Screener software.
VPS34 Protein Sequence (Full Length with GST Tag)

[2] = molecular target: PI3K (p110α (E542K)/p85α) (Homo sapiens (Human), UniProt P42336, E542K); assay: Lipid kinase selectivity panel (Reaction Biology); assay type: biochemical; settings: 1 μM compound, single dose duplicates, 10 μM ATP
Description: (§1) The compounds of the present invention were tested in a standard lipid kinase selectivity panel: 16 other lipid kinases (Reaction Biology, Malvern, PA, USA), under conditions of non-disclosure, non-dissemination, and non-use. In brief, compounds (see Table 2) were tested at in single dose duplicates at 1 μM against lipid kinases, including PI3Kα, PI3Kβ, and PI3Kδ, and reactions were carried out at 10 μM ATP.

[3] = molecular target: PI3K (p110α (E545K)/p85α) (Homo sapiens (Human), UniProt P42336, E545K); assay: Lipid kinase selectivity panel (Reaction Biology); assay type: biochemical; settings: 1 μM compound, single dose duplicates, 10 μM ATP
Description: as §1

[4] = molecular target: PI3K (p110α (H1047R)/p85α) (Homo sapiens (Human), UniProt P42336, H1047R); assay: Lipid kinase selectivity panel (Reaction Biology); assay type: biochemical; settings: 1 μM compound, single dose duplicates, 10 μM ATP
Description: as §1

[5] = molecular target: PI3K (p110α/p65α) (Homo sapiens (Human), UniProt P42336); assay: Lipid kinase selectivity panel (Reaction Biology); assay type: biochemical; settings: 1 μM compound, single dose duplicates, 10 μM ATP
Description: as §1

[6] = molecular target: PI3KC2α (Homo sapiens (Human), UniProt O00443); assay: Lipid kinase selectivity panel (Reaction Biology); assay type: biochemical; settings: 1 μM compound, single dose duplicates, 10 μM ATP
Description: as §1

[7] = molecular target: PI3Kb (p110β/p85α) (Homo sapiens (Human), UniProt P42338); assay: Lipid kinase selectivity panel (Reaction Biology); assay type: biochemical; settings: 1 μM compound, single dose duplicates, 10 μM ATP
Description: as §1

[8] = molecular target: PI3Kd (p110δ/p85α) (Homo sapiens (Human), UniProt O00329); assay: Lipid kinase selectivity panel (Reaction Biology); assay type: biochemical; settings: 1 μM compound, single dose duplicates, 10 μM ATP
Description: as §1

[9] = molecular target: PI3Kg (p110γ) (Homo sapiens (Human), UniProt P48736); assay: Lipid kinase selectivity panel (Reaction Biology); assay type: biochemical; settings: 1 μM compound, single dose duplicates, 10 μM ATP
Description: as §1

[10] = molecular target: PI3Kα (p110α/p85α) (Homo sapiens (Human), UniProt P42336); assay: Lipid kinase selectivity panel (Reaction Biology); assay type: biochemical; settings: 1 μM compound, single dose duplicates, 10 μM ATP
Description: as §1

COC(=O)Nc1cc(-c2cc(N3CCCC[C@@H]3C(F)(F)F)[nH]c(=O)c2)c(F)cn1 was tested, and the IC50 [1] was 100 to 500 nM, the “Percent inhibition relative to DMSO control, PI3K (p110α (E542K)/p85α)” value [2] was 30% and the “Percent inhibition relative to DMSO control, PI3K (p110α (E545K)/p85α)” value [3] was 36%. For the same compound, the “Percent inhibition relative to DMSO control, PI3K (p110α (H1047R)/p85α)” value [4] was 44%, the “Percent inhibition relative to DMSO control, PI3K (p110α/p65α)” value [5] was 33% and the “Percent inhibition relative to DMSO control, PI3KC2α” value [6] was 2%. The “Percent inhibition relative to DMSO control, PI3Kb (p110β/p85α)” value [7] was −7%, the “Percent inhibition relative to DMSO control, PI3Kd (p110δ/p85α)” value [8] was 42% and the “Percent inhibition relative to DMSO control, PI3Kg (p110γ)” value [9] was 41%. The “Percent inhibition relative to DMSO control, PI3Kα (p110α/p85α)” value [10] was 25%.

The structures given here were assigned with low confidence; some may be wrong.
